These are yes or no findings as the source states them, for the method shown. In cells and extracts the contact can be indirect. These calls come from enrichment with a bait or labelling near it, and not all partners need be listed. For some of these results: No binding means not detected with the bait. For some of these results: Where a sequence is shown, tags or fusion partners need not be part of it.
How the values were obtained:
Test in all cases: affinity purification with mass spectrometry; TAP/MS; TAP-tagged bait transfected alone (or with empty vector) in HEK293T cells; TEV cleavage omitted; eluates on Velos-Pro Orbitrap Elite; protein FDR 2.5%
[1] = biological target: ADRA2B (α2B-adrenergic receptor), TAP-tagged (human) (UniProt P18089)
[2] = biological target: CXCR2 (chemokine receptor), TAP-tagged (human) (UniProt P25025)
[3] = biological target: CXCR3 (chemokine receptor), TAP-tagged (human) (UniProt P49682)
[4] = biological target: CYSLTR2 (cysteinyl leukotriene 2 receptor), TAP-tagged (human) (UniProt Q9NS75)
[5] = biological target: T1, GALR1 (galanin type I receptor), TAP-tagged (human) (UniProt P47211)
T1 sequence: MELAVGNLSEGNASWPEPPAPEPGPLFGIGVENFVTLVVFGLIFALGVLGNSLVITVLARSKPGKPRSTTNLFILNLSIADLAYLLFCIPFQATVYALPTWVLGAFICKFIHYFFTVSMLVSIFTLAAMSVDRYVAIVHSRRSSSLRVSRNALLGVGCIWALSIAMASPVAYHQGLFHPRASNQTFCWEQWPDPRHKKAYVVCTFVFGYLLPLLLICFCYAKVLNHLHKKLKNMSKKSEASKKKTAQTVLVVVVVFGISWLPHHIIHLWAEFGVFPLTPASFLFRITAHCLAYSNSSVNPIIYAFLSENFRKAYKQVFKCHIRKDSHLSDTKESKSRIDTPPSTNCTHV

Protein sequences, listed by entry. Tags and fused reporters are not part of them. Lines headed by an entry give the natural chain unless they say otherwise; changes in a name come on top. Residues count along the entry.
UniProt P18089: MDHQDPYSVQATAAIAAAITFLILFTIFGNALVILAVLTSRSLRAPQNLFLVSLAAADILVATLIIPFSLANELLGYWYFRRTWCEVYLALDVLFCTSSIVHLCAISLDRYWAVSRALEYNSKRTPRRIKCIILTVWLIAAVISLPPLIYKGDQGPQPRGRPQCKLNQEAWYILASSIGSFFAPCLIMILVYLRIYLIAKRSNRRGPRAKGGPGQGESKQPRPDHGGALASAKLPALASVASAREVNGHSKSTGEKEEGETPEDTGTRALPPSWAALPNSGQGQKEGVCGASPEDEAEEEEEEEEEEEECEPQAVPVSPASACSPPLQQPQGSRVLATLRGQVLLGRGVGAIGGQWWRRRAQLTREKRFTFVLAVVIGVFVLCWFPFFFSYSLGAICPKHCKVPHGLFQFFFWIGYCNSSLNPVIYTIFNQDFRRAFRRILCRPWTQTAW
UniProt P25025: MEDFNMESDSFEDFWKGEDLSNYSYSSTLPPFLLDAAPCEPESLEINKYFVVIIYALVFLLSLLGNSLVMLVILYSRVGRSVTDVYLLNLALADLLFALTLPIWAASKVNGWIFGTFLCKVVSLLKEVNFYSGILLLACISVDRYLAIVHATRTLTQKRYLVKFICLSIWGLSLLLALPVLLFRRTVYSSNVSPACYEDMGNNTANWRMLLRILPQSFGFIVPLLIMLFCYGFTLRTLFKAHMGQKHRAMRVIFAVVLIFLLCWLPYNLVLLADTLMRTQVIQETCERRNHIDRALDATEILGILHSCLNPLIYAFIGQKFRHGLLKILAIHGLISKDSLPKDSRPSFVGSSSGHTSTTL
UniProt P49682: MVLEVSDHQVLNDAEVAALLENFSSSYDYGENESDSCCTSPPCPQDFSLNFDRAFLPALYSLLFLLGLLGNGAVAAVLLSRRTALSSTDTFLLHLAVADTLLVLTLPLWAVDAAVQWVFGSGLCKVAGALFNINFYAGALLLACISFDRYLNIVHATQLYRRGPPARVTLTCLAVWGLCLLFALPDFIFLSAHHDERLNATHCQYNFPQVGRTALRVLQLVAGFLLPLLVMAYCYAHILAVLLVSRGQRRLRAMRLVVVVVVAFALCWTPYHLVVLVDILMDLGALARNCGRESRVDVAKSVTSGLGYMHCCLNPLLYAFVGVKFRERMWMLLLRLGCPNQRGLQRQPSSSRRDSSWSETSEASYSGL
UniProt Q9NS75: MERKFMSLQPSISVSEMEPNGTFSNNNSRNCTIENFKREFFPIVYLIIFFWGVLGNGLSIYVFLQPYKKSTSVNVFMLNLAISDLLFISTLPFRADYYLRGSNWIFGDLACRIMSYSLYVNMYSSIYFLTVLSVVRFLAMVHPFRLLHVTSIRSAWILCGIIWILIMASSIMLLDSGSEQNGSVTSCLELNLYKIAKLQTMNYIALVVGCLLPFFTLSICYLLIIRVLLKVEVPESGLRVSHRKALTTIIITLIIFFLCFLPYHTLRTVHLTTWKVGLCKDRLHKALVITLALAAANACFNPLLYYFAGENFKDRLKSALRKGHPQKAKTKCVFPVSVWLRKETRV
UniProt P28223: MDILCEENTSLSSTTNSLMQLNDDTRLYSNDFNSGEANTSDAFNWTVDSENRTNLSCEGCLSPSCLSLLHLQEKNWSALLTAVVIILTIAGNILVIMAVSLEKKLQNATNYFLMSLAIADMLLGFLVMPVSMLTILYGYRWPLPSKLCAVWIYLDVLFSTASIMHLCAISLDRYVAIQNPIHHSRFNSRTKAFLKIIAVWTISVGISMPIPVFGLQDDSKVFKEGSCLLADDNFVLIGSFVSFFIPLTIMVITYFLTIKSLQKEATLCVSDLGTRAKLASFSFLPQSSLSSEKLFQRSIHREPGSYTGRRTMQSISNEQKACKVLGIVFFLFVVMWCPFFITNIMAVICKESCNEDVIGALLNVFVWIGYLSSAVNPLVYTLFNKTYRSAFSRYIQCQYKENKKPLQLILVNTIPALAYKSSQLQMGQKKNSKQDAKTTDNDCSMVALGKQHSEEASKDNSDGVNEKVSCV
UniProt P28335, residues 33-458: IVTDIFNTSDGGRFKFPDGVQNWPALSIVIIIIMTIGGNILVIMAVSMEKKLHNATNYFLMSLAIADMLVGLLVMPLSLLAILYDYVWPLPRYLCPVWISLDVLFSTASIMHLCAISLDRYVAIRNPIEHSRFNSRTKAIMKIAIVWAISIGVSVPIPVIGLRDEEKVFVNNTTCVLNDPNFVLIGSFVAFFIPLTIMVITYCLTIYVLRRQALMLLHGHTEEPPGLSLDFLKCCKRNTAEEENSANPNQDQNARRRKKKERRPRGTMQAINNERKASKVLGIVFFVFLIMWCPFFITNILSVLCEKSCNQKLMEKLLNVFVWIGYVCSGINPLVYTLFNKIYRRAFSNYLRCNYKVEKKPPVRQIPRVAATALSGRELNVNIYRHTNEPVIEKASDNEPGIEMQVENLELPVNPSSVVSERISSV
UniProt Q9HBW0: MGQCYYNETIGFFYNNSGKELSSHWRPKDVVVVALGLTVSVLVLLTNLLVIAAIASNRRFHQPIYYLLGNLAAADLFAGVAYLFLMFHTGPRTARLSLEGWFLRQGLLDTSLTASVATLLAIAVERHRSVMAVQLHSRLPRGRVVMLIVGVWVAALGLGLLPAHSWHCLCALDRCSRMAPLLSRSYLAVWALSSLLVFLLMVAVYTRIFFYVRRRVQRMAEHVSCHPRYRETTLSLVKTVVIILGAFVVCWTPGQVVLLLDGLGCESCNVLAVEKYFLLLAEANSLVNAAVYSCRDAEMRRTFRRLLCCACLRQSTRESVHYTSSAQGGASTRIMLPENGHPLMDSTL
UniProt P47900: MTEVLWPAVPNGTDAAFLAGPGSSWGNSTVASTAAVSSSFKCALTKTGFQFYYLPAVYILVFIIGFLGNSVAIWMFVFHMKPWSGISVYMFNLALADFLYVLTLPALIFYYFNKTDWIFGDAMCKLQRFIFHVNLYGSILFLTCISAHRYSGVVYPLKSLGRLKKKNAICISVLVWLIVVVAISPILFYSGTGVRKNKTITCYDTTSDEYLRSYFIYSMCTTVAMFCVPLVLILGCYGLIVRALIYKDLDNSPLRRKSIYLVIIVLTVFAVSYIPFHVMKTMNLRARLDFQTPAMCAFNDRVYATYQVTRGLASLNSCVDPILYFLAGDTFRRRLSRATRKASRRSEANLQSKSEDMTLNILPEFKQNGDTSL
UniProt Q9H244: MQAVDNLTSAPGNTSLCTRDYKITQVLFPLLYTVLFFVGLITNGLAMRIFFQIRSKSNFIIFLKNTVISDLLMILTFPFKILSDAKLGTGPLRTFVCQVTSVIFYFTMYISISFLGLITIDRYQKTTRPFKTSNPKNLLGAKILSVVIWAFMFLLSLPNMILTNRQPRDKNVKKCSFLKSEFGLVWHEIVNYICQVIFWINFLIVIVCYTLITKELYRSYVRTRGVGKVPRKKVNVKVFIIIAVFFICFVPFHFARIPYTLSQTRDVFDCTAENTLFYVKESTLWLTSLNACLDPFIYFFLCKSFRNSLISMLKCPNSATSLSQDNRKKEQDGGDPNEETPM
UniProt O95136: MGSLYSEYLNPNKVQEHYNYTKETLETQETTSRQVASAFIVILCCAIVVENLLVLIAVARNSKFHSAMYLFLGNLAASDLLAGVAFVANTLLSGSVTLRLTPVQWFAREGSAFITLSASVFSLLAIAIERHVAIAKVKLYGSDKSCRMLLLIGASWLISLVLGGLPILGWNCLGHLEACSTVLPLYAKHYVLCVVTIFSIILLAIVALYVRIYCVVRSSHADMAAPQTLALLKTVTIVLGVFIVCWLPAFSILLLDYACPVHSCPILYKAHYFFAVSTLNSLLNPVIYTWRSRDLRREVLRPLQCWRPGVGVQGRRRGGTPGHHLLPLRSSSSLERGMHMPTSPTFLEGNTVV
UniProt P30872: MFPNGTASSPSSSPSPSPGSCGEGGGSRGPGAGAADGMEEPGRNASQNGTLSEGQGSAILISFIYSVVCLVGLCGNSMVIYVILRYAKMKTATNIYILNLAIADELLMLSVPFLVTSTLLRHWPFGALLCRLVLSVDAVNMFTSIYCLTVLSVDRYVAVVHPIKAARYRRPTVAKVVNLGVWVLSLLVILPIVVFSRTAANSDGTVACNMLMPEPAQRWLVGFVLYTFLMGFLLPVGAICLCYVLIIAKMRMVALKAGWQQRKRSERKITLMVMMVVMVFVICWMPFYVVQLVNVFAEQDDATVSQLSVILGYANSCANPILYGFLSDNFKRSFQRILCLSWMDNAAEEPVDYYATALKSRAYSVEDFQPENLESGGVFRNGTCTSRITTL
UniProt P30874: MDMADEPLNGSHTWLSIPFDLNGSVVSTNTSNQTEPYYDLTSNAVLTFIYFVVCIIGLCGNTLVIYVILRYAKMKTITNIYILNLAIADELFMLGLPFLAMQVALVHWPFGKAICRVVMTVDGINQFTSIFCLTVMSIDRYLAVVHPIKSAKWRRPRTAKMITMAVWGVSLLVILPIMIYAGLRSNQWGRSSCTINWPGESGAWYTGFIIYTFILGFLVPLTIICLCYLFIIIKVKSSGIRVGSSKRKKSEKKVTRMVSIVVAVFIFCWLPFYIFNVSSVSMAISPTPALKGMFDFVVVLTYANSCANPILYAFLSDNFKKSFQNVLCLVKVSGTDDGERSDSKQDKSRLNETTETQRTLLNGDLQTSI
UniProt P32745: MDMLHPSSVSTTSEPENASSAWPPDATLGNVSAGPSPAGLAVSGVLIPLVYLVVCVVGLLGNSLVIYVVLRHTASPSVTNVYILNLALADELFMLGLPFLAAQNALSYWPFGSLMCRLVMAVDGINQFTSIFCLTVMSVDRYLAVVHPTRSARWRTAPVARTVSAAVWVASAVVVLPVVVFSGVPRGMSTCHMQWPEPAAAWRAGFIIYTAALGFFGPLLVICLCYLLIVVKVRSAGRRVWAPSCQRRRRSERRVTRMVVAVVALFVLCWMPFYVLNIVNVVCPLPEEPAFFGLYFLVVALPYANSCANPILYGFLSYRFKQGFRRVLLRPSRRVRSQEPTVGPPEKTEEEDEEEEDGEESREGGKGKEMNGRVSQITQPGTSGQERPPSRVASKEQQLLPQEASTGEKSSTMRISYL
UniProt P25100: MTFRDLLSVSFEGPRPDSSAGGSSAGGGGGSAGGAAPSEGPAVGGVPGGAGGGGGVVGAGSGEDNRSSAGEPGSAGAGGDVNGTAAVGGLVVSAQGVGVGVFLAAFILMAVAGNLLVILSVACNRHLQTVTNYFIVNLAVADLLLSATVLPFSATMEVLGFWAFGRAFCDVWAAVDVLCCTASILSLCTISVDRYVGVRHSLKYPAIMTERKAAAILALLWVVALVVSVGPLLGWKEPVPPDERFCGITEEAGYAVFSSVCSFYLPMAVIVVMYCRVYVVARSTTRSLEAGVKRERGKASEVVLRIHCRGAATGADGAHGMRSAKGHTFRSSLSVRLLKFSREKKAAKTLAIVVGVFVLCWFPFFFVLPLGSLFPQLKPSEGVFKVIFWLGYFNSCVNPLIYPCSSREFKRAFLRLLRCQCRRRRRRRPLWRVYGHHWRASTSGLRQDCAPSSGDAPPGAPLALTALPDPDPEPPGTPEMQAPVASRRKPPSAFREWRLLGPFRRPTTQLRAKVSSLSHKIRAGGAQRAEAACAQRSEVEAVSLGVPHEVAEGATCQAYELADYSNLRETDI

[6] = biological target: HTR2A (5-hydroxytryptamine type 2A receptor), TAP-tagged (human) (UniProt P28223)
[7] = biological target: HTR2C (5-hydroxytryptamine type 2C receptor), TAP-tagged (human) (UniProt P28335)
[8] = biological target: LPAR2 (lysophosphatidic acid type 2 receptor), TAP-tagged (human) (UniProt Q9HBW0)
[9] = biological target: T2, MAS1 (proto-oncogene MAS type I), TAP-tagged (human) (UniProt P04201)
T2 sequence: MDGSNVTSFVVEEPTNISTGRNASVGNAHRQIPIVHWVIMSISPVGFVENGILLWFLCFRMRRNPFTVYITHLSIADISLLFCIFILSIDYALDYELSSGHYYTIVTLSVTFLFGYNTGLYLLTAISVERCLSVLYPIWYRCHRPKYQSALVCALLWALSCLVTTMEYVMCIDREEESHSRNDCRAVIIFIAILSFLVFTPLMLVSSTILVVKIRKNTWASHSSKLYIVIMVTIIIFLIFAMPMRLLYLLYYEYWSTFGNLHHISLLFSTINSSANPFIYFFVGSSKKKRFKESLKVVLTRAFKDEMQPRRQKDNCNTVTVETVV

[10] = biological target: P2RY1 (P2Y purinergic receptor 1), TAP-tagged (human) (UniProt P47900)
[11] = biological target: P2RY12 (P2Y purinergic receptor 12), TAP-tagged (human) (UniProt Q9H244)
[12] = biological target: S1PR2 (sphingosine-1-phosphate type 2 receptor), TAP-tagged (human) (UniProt O95136)
[13] = biological target: SSTR1 (somatostatin receptor 1), TAP-tagged (human) (UniProt P30872)
[14] = biological target: SSTR2 (somatostatin receptor 2), TAP-tagged (human) (UniProt P30874)
[15] = biological target: SSTR3 (somatostatin receptor 3), TAP-tagged (human) (UniProt P32745)
TAP–ADRA1D (human) = TAP–ADRA1D (human) (UniProt P25100)

binding [1]: no binding
binding [2]: no binding
binding [3]: no binding
binding [4]: no binding
binding [5]: no binding
binding [6]: no binding
binding [7]: no binding
binding [8]: no binding
binding [9]: no binding
binding [10]: no binding
binding [11]: no binding
binding [12]: no binding
binding [13]: no binding
binding [14]: no binding
binding [15]: no binding
binding (TAP–ADRA1D (human)): binds
B1: dystrobrevin-A (DTNA) (protein, UniProt Q9Y4J8 1-743)
chain: MIEDSGKRGNTMAERRQLFAEMRAQDLDRIRLSTYRTACKLRFVQKKCNLHLVDIWNVIEALRENALNNLDPNTELNVSRLEAVLSTIFYQLNKRMPTTHQIHVEQSISLLLNFLLAAFDPEGHGKISVFAVKMALATLCGGKIMDKLRYIFSMISDSSGVMVYGRYDQFLREVLKLPTAVFEGPSFGYTEQSARSCFSQQKKVTLNGFLDTLMSDPPPQCLVWLPLLHRLANVENVFHPVECSYCHSESMMGFRYRCQQCHNYQLCQDCFWRGHAGGSHSNQHQMKEYTSWKSPAKKLTNALSKSLSCASSREPLHPMFPDQPEKPLNLAHIVDTWPPRPVTSMNDTLFSHSVPSSGSPFITRSSPPKDSEVEQNKLLARAAPAFLKGKGIQYSLNVADRLADEHVLIGLYVNMLRNNPSCMLESSNRLDEEHRLIARYAARLAAESSSSQPPQQRSAPDISFTIDANKQQRQLIAELENKNREILQEIQRLRLEHEQASQPTPEKAQQNPTLLAELRLLRQRKDELEQRMSALQESRRELMVQLEGLMKLLKTQGAGSPRSSPSHTISRPIPMPIRSASACSTPTHTPQDSLTGVGGDVQEAFAQSSRRNLRNDLLVAADSITNTMSSLVKELNSEVGSETESNVDSEFARTQFEDLVPSPTSEKAFLAQIHARKPGYIHSGATTSTMRGDMVTEDADPYVQPEDENYENDSVRQLENELQMEEYLKQKLQDEAYQVSLQG

From article PMC4658663
